In the supplement of paper PMC10849652 one finds log2 fold change data, which are given here for 32 targets.

The chains behind the UniProt entries cited, without tags or fusion partners. Where a name states a change or a piece, a line headed by the entry shows the natural chain unless it says otherwise.
UniProt P02647, whole entry, looked up: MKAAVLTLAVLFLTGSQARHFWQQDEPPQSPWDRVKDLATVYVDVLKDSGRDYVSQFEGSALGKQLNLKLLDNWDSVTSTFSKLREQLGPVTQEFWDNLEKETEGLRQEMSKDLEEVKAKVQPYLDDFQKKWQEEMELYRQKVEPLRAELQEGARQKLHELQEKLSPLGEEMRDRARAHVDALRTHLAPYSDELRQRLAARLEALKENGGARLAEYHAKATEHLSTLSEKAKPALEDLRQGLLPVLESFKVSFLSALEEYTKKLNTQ
UniProt P62330: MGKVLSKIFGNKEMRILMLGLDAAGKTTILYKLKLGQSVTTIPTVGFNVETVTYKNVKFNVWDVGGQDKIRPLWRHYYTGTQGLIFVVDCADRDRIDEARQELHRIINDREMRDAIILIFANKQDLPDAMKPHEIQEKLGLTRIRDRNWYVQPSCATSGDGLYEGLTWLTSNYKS
UniProt P58335, whole entry, looked up: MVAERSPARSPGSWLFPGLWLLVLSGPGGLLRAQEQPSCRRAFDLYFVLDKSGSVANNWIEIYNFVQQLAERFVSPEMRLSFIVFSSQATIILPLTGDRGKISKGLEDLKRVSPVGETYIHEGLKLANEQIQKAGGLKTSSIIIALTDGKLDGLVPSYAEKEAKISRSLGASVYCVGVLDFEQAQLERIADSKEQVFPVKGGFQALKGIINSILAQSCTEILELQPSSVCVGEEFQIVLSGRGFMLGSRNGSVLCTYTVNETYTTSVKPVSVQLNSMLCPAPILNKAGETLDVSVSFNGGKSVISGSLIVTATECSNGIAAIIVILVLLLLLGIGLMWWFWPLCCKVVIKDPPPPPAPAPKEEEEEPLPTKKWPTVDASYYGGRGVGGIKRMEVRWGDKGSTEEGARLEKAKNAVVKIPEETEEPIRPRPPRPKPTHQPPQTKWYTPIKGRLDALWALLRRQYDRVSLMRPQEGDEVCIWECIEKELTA
UniProt Q8N392: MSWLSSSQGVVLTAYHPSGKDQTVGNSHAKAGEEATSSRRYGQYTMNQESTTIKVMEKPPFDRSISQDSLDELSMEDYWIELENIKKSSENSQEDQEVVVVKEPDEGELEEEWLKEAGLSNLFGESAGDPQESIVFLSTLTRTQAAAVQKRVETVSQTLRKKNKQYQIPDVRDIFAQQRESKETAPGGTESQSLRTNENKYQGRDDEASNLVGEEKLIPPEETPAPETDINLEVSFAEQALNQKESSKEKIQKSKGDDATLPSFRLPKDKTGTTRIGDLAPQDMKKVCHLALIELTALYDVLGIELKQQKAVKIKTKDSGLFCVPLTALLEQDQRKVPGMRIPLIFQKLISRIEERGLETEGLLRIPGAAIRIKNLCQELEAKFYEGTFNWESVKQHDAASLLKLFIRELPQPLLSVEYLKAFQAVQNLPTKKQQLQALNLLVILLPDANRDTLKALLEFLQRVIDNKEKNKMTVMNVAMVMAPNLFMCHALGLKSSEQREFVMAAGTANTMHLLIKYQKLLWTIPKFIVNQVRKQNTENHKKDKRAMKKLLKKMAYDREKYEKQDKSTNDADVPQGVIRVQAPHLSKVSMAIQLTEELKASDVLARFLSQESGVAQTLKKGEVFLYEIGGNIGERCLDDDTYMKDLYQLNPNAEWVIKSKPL
UniProt P27695, whole entry, looked up: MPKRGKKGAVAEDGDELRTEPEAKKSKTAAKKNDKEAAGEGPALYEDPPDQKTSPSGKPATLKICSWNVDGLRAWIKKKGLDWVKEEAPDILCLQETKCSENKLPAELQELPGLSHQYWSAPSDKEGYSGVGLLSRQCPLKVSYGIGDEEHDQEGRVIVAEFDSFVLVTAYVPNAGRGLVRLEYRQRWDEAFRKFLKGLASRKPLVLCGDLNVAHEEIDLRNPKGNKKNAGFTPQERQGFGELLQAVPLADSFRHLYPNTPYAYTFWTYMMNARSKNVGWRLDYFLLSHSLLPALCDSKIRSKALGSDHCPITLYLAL
UniProt O14617: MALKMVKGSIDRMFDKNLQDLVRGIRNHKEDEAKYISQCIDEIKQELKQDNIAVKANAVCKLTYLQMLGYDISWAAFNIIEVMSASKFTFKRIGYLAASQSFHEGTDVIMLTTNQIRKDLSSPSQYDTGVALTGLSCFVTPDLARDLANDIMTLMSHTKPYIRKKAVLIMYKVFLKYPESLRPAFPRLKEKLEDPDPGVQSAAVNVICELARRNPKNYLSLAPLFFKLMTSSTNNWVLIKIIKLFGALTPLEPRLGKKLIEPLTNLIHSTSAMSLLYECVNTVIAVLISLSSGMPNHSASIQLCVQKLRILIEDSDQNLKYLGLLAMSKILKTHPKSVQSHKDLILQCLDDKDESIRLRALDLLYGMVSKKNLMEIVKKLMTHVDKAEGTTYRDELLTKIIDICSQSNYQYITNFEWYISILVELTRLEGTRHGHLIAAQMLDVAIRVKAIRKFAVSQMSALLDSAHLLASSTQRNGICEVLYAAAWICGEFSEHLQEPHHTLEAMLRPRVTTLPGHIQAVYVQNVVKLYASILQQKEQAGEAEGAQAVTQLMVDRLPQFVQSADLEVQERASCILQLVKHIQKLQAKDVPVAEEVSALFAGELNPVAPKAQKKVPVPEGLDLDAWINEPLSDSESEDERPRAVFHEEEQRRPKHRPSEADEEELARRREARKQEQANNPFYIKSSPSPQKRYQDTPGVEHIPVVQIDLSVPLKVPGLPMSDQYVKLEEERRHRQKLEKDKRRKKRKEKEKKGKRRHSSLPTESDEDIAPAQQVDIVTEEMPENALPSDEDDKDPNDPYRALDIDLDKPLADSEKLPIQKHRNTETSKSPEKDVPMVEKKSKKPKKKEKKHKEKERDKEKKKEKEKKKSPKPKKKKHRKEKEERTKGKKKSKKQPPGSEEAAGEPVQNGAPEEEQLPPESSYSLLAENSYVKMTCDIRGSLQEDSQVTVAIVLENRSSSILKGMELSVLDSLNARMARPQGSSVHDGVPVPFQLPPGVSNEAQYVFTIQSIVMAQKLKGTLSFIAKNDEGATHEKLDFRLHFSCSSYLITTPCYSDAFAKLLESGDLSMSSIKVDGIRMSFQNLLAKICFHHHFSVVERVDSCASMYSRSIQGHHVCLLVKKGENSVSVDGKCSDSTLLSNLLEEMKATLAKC
UniProt Q86W74: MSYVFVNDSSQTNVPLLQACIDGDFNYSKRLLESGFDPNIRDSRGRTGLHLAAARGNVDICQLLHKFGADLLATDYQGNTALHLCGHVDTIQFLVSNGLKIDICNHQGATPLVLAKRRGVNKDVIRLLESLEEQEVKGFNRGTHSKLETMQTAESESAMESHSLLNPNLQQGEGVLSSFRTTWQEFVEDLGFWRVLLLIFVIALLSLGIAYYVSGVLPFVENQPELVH
UniProt Q68EM7: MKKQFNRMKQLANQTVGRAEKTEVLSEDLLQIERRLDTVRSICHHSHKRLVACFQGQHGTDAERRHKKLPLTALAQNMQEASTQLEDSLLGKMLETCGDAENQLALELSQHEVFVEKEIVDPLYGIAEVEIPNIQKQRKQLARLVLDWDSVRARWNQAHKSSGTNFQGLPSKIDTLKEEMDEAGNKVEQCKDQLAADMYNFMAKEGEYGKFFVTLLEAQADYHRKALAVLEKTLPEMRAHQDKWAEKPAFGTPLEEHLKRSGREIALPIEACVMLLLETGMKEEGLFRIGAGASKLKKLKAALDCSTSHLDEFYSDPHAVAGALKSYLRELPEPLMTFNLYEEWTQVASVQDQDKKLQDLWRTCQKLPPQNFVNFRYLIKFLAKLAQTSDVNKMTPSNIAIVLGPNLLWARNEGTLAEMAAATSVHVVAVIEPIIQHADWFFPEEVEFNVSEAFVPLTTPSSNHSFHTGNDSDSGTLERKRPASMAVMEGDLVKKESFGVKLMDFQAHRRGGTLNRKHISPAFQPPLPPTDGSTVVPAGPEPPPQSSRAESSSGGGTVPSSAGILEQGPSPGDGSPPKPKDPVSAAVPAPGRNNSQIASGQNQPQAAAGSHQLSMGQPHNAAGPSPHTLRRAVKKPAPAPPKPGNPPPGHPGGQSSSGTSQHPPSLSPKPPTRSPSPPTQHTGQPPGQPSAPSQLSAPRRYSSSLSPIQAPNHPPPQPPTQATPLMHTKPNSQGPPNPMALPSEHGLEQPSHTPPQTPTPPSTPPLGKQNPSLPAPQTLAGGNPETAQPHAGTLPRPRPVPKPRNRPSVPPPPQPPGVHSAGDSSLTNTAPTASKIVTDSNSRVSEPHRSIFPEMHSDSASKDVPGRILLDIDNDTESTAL
UniProt Q96GX9: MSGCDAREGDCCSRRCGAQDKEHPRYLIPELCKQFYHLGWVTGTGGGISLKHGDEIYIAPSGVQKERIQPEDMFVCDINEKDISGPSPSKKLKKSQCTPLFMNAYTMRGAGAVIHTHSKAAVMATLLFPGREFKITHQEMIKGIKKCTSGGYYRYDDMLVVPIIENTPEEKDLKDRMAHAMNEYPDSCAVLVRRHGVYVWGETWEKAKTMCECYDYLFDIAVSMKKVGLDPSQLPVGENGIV
UniProt P09525: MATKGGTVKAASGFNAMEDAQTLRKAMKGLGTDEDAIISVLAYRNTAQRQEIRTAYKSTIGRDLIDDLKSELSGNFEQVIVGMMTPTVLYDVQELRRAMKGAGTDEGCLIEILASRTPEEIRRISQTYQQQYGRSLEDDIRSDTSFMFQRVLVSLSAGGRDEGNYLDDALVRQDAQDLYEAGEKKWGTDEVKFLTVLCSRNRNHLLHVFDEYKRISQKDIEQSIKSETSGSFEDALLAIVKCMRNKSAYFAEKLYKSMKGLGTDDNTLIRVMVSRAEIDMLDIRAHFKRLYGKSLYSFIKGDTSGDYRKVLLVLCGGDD
UniProt Q8NB46: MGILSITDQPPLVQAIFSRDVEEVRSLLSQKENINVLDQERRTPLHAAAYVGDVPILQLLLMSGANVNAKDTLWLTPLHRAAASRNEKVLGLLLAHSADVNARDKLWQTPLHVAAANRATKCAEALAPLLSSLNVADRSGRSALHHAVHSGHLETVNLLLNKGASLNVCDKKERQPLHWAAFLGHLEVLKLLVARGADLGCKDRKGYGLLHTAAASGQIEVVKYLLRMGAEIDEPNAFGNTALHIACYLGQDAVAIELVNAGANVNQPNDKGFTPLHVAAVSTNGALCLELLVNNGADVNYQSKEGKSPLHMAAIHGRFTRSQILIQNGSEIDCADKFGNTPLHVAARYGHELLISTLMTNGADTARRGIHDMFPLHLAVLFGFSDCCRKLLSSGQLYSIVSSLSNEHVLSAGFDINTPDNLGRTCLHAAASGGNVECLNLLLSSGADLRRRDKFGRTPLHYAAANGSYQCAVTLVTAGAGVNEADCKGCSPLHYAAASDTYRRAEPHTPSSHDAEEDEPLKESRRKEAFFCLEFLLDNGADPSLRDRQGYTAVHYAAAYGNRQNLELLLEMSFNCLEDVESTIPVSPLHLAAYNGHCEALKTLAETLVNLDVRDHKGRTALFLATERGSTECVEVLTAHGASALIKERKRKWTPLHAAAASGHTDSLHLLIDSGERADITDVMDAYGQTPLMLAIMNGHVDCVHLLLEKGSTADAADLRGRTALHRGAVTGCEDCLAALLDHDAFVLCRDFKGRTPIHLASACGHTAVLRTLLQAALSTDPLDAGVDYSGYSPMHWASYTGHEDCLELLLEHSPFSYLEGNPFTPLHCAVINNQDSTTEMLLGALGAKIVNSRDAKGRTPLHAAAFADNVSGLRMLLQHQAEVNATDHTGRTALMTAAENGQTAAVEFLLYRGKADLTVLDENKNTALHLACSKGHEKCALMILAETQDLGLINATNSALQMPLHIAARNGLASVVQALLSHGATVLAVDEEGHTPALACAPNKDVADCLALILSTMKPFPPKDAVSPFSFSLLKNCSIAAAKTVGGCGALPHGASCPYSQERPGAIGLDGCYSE
UniProt P02654: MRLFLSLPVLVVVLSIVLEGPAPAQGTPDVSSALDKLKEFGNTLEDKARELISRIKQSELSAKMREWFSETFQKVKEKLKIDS
UniProt Q7Z5H3: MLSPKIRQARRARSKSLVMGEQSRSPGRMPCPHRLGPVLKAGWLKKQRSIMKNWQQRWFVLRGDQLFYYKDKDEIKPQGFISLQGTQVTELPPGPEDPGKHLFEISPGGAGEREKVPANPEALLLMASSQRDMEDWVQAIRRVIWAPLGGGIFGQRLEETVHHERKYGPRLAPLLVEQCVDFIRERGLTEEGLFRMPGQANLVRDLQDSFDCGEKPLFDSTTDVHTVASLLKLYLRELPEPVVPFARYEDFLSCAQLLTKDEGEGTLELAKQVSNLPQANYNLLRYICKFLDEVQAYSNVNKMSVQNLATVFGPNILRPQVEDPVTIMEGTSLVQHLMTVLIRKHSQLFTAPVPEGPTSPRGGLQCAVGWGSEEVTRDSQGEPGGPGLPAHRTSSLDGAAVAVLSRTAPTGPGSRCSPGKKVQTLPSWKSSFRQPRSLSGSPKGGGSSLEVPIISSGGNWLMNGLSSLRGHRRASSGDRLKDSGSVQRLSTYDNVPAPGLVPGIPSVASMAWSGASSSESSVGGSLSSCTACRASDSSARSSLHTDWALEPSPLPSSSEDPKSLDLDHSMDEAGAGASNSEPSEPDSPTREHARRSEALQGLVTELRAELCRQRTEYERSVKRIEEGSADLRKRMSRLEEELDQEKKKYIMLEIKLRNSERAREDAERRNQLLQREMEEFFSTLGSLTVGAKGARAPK

This is one part of the list.

Compound in the assay: c1cn2cc(-c3ccc4cn[nH]c4c3)nc(Nc3ccc(N4CCOCC4)cc3)c2n1 [entospletinib]
In words: log2 fold change, soluble protein after heating vs DMSO (PISA); higher = thermal stabilisation; K562 cells, 10 uM, 30 min; active = over 0.2 and 3.5 SD of the protein, either way, in both replicates (recomputed). A digest of the protocol: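 Quantification of soluble protein used TMTpro 16plex LC-MS/MS, with channel sums equalised. Samples were the supernatant after 21,000xg for 90 min of pooled aliquots from K562 cells (2×10^6 cells/mL) treated with 10 μM compound for 30 min, heated for 3 min over 48°C-58°C, and extracted in PBS with 0.5% NP-40 at 4°C. Values, from duplicates, describe thermal stability against control samples on a log2 fold-change scale.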
Consider ARHGEF1 isoform 3 (UniProt Q92888), for which the log2 fold change is inactive: 0.134.
As for ARHGDIA (UniProt P52565), the log2 fold change is inactive: -0.024.
In the case of APEH (UniProt P13798), the log2 fold change was inactive: -0.007.
Take APOA1 (UniProt P02647): the log2 fold change was inactive: 0.131.
For the target AP1G1 isoform 2 (UniProt O43747), the log2 fold change was inactive: 0.026.
Turning to ARF6 (UniProt P62330), the log2 fold change was inactive: -0.046.
On to ANKHD1 isoform 6 (UniProt Q8IWZ3), for which the log2 fold change is inactive: 0.064.
As for ARFIP2 (UniProt P53365), the log2 fold change was inactive: -0.108.
Take ARFGEF2 (UniProt Q9Y6D5): the log2 fold change was inactive: -0.019.
With ANTXR2 isoform 4 (UniProt P58335), the log2 fold change is inactive: 0.025.
AP3S1 (UniProt Q92572): the log2 fold change is inactive: -0.054.
For the target ARHGAP18 (UniProt Q8N392), the log2 fold change is inactive: -0.008.
Then ANGPTL3 (UniProt Q9Y5C1), with inactive: 0.028; and APEX1 (UniProt P27695), with inactive: -0.017.
As to AP3D1 isoform 5 (UniProt O14617), the log2 fold change was inactive: -0.012.
ARCN1 (UniProt P48444): the log2 fold change was inactive: -0.024.
ARHGAP35 (UniProt Q9NRY4): the log2 fold change was inactive: 0.036.
With ANKH (UniProt Q9HCJ1), the log2 fold change was inactive: 0.111.
As for ARHGEF2 (UniProt Q92974), the log2 fold change was inactive: 0.151.
As for APOD (UniProt P05090), the log2 fold change is inactive: 0.016.
With ANXA1 (UniProt P04083) the figure was inactive: -0.005.
For the target APOL1 isoform 2 (UniProt O14791), the log2 fold change is inactive: -0.201.
Turning to ANKRD46 (UniProt Q86W74), the log2 fold change is inactive: -0.177.
Then ANKRD49 (UniProt Q8WVL7), with inactive: -0.025.
Consider ARHGAP17 (UniProt Q68EM7), for which the log2 fold change is inactive: 0.01.
With ARHGAP45 isoform 2 (UniProt Q92619), the log2 fold change was inactive: 0.016.
As to APIP (UniProt Q96GX9), the log2 fold change was inactive: -0.013.
For ANXA4 (UniProt P09525), the log2 fold change was inactive: -0.002.
As for AP3M1 (UniProt Q9Y2T2), the log2 fold change is inactive: -0.041.
On to ANKRD52 (UniProt Q8NB46), for which the log2 fold change is inactive: 0.513.
Then APOC1 (UniProt P02654), with inactive: 0.056.
In the case of ARHGAP22 isoform 2 (UniProt Q7Z5H3), the log2 fold change is inactive: -0.062.
